The record followed here is article PMC7606512.

Protein sequences, listed by entry. Tags and fused reporters are not part of them. Residues count along the entry.
UniProt Q9Y4L5, residues 1-200: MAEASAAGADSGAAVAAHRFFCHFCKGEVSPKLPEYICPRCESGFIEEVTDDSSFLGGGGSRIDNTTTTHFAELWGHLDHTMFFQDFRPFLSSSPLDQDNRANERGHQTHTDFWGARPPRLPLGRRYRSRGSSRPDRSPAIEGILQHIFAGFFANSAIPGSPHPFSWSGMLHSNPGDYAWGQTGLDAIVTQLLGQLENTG
UniProt Q7Z434: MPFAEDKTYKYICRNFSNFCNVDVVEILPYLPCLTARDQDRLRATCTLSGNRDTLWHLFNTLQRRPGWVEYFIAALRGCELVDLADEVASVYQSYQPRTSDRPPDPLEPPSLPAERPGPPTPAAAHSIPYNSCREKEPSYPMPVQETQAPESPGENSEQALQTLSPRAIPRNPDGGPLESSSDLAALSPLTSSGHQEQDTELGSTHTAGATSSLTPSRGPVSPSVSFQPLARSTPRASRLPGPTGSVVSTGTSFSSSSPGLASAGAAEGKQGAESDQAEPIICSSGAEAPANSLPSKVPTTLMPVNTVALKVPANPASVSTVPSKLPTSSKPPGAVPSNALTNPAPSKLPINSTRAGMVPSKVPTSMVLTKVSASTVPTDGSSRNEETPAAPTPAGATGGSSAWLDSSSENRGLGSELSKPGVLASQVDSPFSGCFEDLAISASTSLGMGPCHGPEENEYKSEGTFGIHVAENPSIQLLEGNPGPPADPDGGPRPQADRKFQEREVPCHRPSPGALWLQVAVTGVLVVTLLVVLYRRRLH
UniProt Q9D0C1: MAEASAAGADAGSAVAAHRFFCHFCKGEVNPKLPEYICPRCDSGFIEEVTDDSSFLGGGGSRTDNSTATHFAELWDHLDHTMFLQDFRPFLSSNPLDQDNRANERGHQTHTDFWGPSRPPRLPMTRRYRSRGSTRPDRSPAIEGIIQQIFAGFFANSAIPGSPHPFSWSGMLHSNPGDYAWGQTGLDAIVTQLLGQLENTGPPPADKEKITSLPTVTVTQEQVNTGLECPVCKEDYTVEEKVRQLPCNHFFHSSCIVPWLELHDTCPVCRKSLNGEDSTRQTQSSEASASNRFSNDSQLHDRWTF

Assay [1] has as its target GST-RNF115 (1–200aa) (human) (UniProt Q9Y4L5). Briefly: pull-down; purified GST or GST-RNF115 (1–200 aa) (5 μg) incubated with in vitro translated FLAG-MAVS at 4 °C overnight, glutathione agarose 2 h in PBS with protease inhibitors; immunoblot; only the target purified.
Assay [2] deals with MAVS (transfected in HEK293, tag FLAG or HA not told) (UniProt Q7Z434). Description: co-IP; HEK293 cells transiently transfected; lysis buffer 20 mM Tris–HCl pH 7.4–7.5, 150 mM NaCl, 1 mM EDTA, 1% Nonidet P-40; antibody (anti-FLAG) and protein G agarose 2–4 h; immunoblot. (Immunoblotting shows a protein as a band on a membrane.)
Assay [3] deals with T1, MAVS, endogenous in mouse BMDCs and MLFs (mouse (endogenous in BMDCs and MLFs)) (UniProt Q8VCF0).
T1 sequence: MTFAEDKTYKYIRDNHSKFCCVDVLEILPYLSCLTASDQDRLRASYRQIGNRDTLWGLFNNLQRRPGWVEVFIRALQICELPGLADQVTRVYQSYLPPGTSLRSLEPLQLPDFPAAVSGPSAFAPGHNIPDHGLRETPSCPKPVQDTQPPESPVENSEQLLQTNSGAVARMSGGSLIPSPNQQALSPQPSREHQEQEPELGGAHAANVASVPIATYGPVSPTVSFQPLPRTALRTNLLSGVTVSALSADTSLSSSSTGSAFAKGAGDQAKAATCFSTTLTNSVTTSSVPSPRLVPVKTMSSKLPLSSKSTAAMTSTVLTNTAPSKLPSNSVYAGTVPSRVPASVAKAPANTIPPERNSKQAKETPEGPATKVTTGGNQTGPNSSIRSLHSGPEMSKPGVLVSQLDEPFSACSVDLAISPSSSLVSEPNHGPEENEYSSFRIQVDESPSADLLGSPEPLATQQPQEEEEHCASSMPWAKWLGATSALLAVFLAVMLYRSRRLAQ
Briefly: co-IP.

Assay [4] has as its target T1, MAVS, endogenous in mouse BMDCs and MLFs (mouse (endogenous in BMDCs and MLFs)). Briefly: proximity ligation.
Assay [5] concerns the target T2, MITA, endogenous in mouse MLFs (mouse (endogenous in MLFs)) (UniProt Q3TBT3).
T2 sequence: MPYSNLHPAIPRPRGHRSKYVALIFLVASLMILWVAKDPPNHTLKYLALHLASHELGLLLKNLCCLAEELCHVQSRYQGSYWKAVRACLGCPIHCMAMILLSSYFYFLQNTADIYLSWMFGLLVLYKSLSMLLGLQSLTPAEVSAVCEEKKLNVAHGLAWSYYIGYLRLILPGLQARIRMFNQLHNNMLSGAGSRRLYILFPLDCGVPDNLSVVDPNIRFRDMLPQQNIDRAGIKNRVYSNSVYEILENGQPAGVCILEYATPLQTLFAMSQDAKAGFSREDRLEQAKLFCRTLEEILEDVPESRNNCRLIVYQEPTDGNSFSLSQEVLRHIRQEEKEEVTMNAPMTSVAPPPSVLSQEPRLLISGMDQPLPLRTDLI
Briefly: co-IP; endogenous proteins; THP-1 cells (also stably shCon or shRNF115#2) and MLFs (Rnf115+/+ and Rnf115−/−) infected with HSV-1; immunoprecipitated with anti-MITA (Fig. 7f); immunoblot.

Results are given in words; binding and its absence hold for the method and conditions named. Binding seen in cells or lysates may run through a third protein. Some entries that bind do so weakly or less than the wild type.

With “FLAG-MAVS, in vitro translated (from UniProt Q7Z434 1-540)”, the binding entry in assay [1] is “binds”.
With “RNF115 N-terminal domain (aa 1–200), transfected in HEK293 (from UniProt Q9Y4L5 1-200) (domain or fragment)”, the binding entry in assay [2] is “binds”.
As to “RNF115, endogenous in mouse BMDCs and MLFs (from UniProt Q9D0C1 1-305) (enzyme)”, the binding entry in assay [3], in assay [4] and in assay [5] was “binds” in each case.
